# According to PubChem BioAssay AID1347076 (National Center for Advancing Translational Sciences (NCATS), 2019):
# “And” between values parts separate entries of the source, which are not always exact repeats. Equal entries are not always repeated. The campaign covered roughly 400,000 compounds. About 13,000 (3.2%) were called active. This list was built around the results that the source calls inconclusive (neither active nor inactive); the mix of calls is not that of the screen. Calls come from the whole dose curve; as a rule, active = well fitted cell-killing curve with a large enough effect; inconclusive = small, poorly fitted or top-dose-only effect, or effect the other way; inactive = flat fitted curve, though single readings scatter. Potencies of inconclusive entries are doubtful fits and often do not repeat.
# Assay: qHTS assay for MDR1-selective chemotherapeutics: Primary screen using the drug-selected MDR subline cells KB-V1; note: nearly all actives have a fitted effect of over 60% in size
# Conditions: KB-V1 MDR cells viability, CellTiter-Glo, 72 h; activity change, negative = cytotoxicity: at 46.1 µM (top of the series)
# Procedure, shortened: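 Drug-selected KB-V1 cells, grown in DMEM lacking phenol red with 10% FBS, receive compound titrations; after three days at 37 degrees C, surviving cell ATP is quantified by CellTiter-Glo luminescence and responses normalized and curve-fitted.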
# % is set by controls: 0 for no effect and ±100 for the full control effect; potency is the fitted concentration of half-maximal effect.
SMILES,Potency,"activity change, negative = cytotoxicity"
O=C(CCNS(=O)(=O)c1ccccc1Cl)N1CCN(c2ccccn2)CC1,active: 16.4 µM,–
COc1cccc(OCc2cc(C(=O)NCc3ccccn3)no2)c1,"inconclusive: 3.66 µM [rising, partial curve, poor fit]",–
O=C(NCc1csc(-c2cccs2)n1)Nc1ccc(C(F)(F)F)cc1,–,inactive: 0.999%
COc1ccc(NC(=O)c2ccc(NC(=O)CCS(=O)(=O)c3cccs3)cc2)cc1OC,–,inactive: 7.75%
CCCc1c(C(=O)Nc2ccc(F)cc2F)cnn1-c1ccccc1,"inconclusive: 16.4 µM [cytotoxic, single point]",–
C(COC1CC2CC1C1C2CC2OC21)OC1CC2CC1C1C2CC2OC21 (configuration not stated),active: 20.6 µM,–
O=C(Nc1ccc(Cl)cc1)c1nc[nH]c1C(=O)NCc1ccccc1,active: 16.4 µM,–
Cc1ccc(C)c(OCCC(=O)OCC(=O)N2CCN(S(=O)(=O)c3ccc(Cl)cc3)CC2)c1,"inconclusive: 3.26 µM [rising, full curve, poor fit]",–
C[C@@H](C(=O)NC1CCN(Cc2ccccc2)CC1)N1C(=O)N2CCc3c([nH]c4ccccc34)[C@@]2(C)C1=O,–,inactive: -7.83%
COc1cccc(NC(=O)CSc2nnc3c(n2)[nH]c2ccc(C)cc23)c1,–,inactive: -2.29%
Cc1cc(Cl)c2oc(C(=O)N(C)C(C)c3ccccn3)c(C)c2c1 (configuration not stated),"inconclusive: 10.3 µM [cytotoxic, partial curve]",–
NC(=O)C1CCCN(CC(=O)Nc2cc(S(=O)(=O)N3CCOCC3)ccc2N2CCCC2)C1 (configuration not stated),–,inactive: 33.4%
Cc1nc(-c2ccccn2)sc1C(=O)Nc1ccc(F)cc1,active: 18.4 µM,–
COc1ccccc1CN(C)C(=O)c1cc(C)nc2ccccc12,"inconclusive: 29.1 µM [cytotoxic, partial curve, poor fit]",–
COc1ccc(NC(=O)C(=O)N/N=C\c2ccc(CNC(=O)C(=O)Nc3ccc(C)c(C)c3)o2)c(OC)c1,"inconclusive: 20.6 µM [cytotoxic, single point]",–
COc1ccc(/C=c2\sc3nc(-c4ccccc4)c(-c4ccccc4)n3c2=O)cc1OC,"inconclusive: 11.6 µM [rising, partial curve, poor fit]",–
CCN(C(=S)Nc1ccc(OC(F)F)cc1)C1CCCCC1,"inconclusive: 23.1 µM [cytotoxic, single point]",–
Clc1ccccc1OCCCOc1cccc2cccnc12,"inconclusive: 23.1 µM [cytotoxic, partial curve, poor fit]",–
COc1ccccc1NC(=O)CSc1nc2c(oc3ccccc32)c(=O)n1C,"inconclusive: 29.1 µM [cytotoxic, single point]",–
COc1ccc(S(=O)(=O)N2CCC(C(=O)NCCC(=O)NCc3ccccn3)CC2)cc1,–,inactive: 12.2%
O=C(c1cc(C2CC2)nc2ccc(Br)cc12)N1N=C(C(F)F)CC1(O)C(F)F (configuration not stated),–,inactive: 0%
O=C(NCCCO)c1cc2ccccc2[nH]1,–,inactive: 0%
COc1ccc(C(CNC(=O)c2ccc(OCc3cscn3)cc2)N2CCCC2)cc1 (configuration not stated),–,inactive: -28.3%
O=C(NC(c1ccc(-c2ccccc2)cc1)c1cnccn1)C1CCN(CCOc2ccc(Cl)cc2Cl)CC1 (configuration not stated),"inconclusive: 29.1 µM [cytotoxic, single point]",–

SMILES,Potency,"activity change, negative = cytotoxicity"
OC[C@H]1O[C@@H](n2cnc3c(Nc4ccccc4)ncnc32)[C@H](O)[C@@H]1O,–,inactive: -0.0274%
CC(C)(C)C1=CC(O)(c2ccccc2)C=C(C(C)(C)C)C1=O,–,inactive: 0%
CCSC1=NSC2=NC(=O)/C(=C\c3coc4ccccc4c3=O)C(=N)N12,–,inactive: -2.33%
CCc1cccc(CC)c1NC(=O)C1CCN(C(=O)c2ccco2)CC1,"inconclusive: 16.4 µM [cytotoxic, single point]",–
O=C(C1CCN(S(=O)(=O)N2CCOCC2)CC1)N1CCN(c2ccc(F)cc2)CC1,–,inactive: -7.33%
CCOC(=O)c1cc(CC)sc1NC(=O)C(c1ccccc1)c1ccccc1,–,inactive: 1.18%
OCC1OC(n2cnc3c(NCCc4ccccc4)ncnc32)C(O)C1O (configuration not stated),"inconclusive: 20.6 µM [cytotoxic, single point]",–
CCc1ccc(CNCc2ccc(OCC(O)CN(C)Cc3ccccc3)cc2)nc1 (configuration not stated),"inconclusive: 2.59 µM [cytotoxic, full curve]",–
O=c1c2ccccc2nc2n1C(CSCc1ccc(Cl)cc1Cl)CS2 (configuration not stated),active: 5.8 µM,–
COCCN1C(=O)C(=O)/C(=C(/O)c2ccc(S(=O)(=O)N3CCOCC3)cc2)C1c1cccc([N+](=O)[O-])c1 (configuration not stated),"inconclusive: 20.6 µM [rising, single point]",–
Cc1cc(C)nc(NC(=NCCc2c[nH]c3ccccc23)NC(=O)Nc2cccc([N+](=O)[O-])c2)n1,–,inactive: -19.2%
CN(Cc1ccccc1NCC(=O)Nc1ccccc1C#N)C1CCCCC1,–,inactive: -16.6%
CCCN(CC(=O)Nc1ccccc1C)C(=O)c1oc2ccc(OCC)cc2c1C,"inconclusive: 9.2 µM [cytotoxic, partial curve]",–
C/C(=N\NC(N)=S)C1=CCC2C3CC[C@H]4CC(O)CC[C@]4(C)C3CC[C@]12C (some centres not stated),–,inactive: -10.2%
CCOc1ccc(Cl)cc1/C=N/NC(=O)CNC(=O)c1ccccc1,"inconclusive: 16.4 µM [cytotoxic, single point]",–
COc1ccc(CCNC(=S)NCCc2c[nH]c3ccccc23)cc1,"inconclusive: 16.4 µM [cytotoxic, single point]",–
CC1CCCN(c2ccc(C(=O)NCc3cccs3)cn2)C1 (configuration not stated),"inconclusive: 10.3 µM [cytotoxic, partial curve]",–
COc1ccc(C(C(=O)NC(C)(C)C)N(C(=O)CCC(=O)Nc2cc(C)on2)c2cc(C)cc(C)c2)cc1 (configuration not stated),active: 14.6 µM,–
CC(C)Cn1c(N2CCN(C(=O)c3cccs3)CC2)nc2ccccc21,"inconclusive: 5.8 µM [cytotoxic, partial curve, poor fit]",–
COc1cccc(CNC(=O)CCNS(=O)(=O)c2ccc3c(c2)CC(C)N3C(C)=O)c1 (configuration not stated),"inconclusive: 11.6 µM [rising, partial curve]",–
CC1CCCCN1CCCNC(=O)CCCN1C(=O)c2cccnc2Sc2ccccc21 (configuration not stated),–,inconclusive: 38.2%
Cc1ccnc(NS(=O)(=O)c2ccc(NC(=O)CSc3nc(-c4ccccc4)cc(=O)[nH]3)cc2)n1,–,inactive: -8.19%
Cc1ccc(NC(=O)c2cc(S(=O)(=O)NCCC3=CCCCC3)ccc2F)cc1C,"inconclusive: 29.1 µM [cytotoxic, single point]",–
COc1cccc(/C=N/NC(=O)c2nnn(-c3nonc3N)c2CN(C)C2CCCCC2)c1,–,inactive: -2.4%

SMILES,Potency,"activity change, negative = cytotoxicity"
O=C(CSc1ccc(Cl)cc1)N1CCN(c2ccc([N+](=O)[O-])cc2Cl)CC1,active: 16.4 µM,–
Clc1ccccc1-c1ccc(CN2CCN(c3ccccc3)CC2)o1,–,inactive: 6.04%
CC(C)(C)S(=O)(=O)c1ccccc1C(=O)O,"inconclusive: 16.4 µM [rising, partial curve, poor fit]",–
CCC(C)(C)NC(=O)c1cc([N+](=O)[O-])ccc1N1CCOCC1,"inconclusive: 14.6 µM [cytotoxic, partial curve]",–
CCN(Cc1ccc2c(c1)OCCO2)S(=O)(=O)c1ccc(NC(C)=O)cc1,"inconclusive: 18.4 µM [cytotoxic, single point]",–
Cc1c(NC(=O)c2cc(-c3ccc(Br)cc3)on2)c(=O)n(-c2ccccc2)n1C,"inconclusive: 1.84 µM [cytotoxic, partial curve, poor fit] and inconclusive: 4.61 µM [cytotoxic, partial curve]",–
CCOC(=O)Cc1csc(NC(=O)c2sc3nc4ccc(CC)cc4cc3c2N)n1,"inconclusive: 14.6 µM [cytotoxic, partial curve]",–
CCN(CC)C(=O)c1[nH]cnc1C(=O)Nc1ccc(C)cc1,–,inactive: -4.11%
O=C(NCc1ccccc1F)C1CCCN(C(=O)NC2CCCCC2)C1 (configuration not stated),active: 20.6 µM,–
Cc1ccccc1C1N=C2Oc3ccccc3C=C2C(=O)N1 (configuration not stated),active: 4.11 µM,–
Cc1oc(-c2ccccc2)nc1CNC(=O)NC1CCCCC1,"inconclusive: 16.4 µM [cytotoxic, partial curve, poor fit]",–
CCOc1ccc(S(=O)(=O)NCCC(=O)N2CCCC(C)C2)cc1 (configuration not stated),"inconclusive: 20.6 µM [cytotoxic, single point]",–
COc1cc(C(CCN2CCCC2)c2c(OC)cc(OC)c3c(C)cc(=O)oc23)cc(OC)c1OC (configuration not stated),–,inactive: 14.5%
O=C(Nc1ccccn1)c1cc(-c2cccc(Cl)c2)nc2ccccc12,"inconclusive: 4.11 µM [cytotoxic, full curve]",–
Cc1ccc(OCCC(=O)OCC(=O)N2CCN(S(=O)(=O)c3ccc(Cl)cc3)CC2)cc1,–,inactive: 15.6%
C=CCn1c(SCC(=O)Nc2sccc2C(N)=O)nc2ccccc2c1=O,active: 18.4 µM,–
COC(=O)c1cccc(NC(=S)NCCC2=CCCCC2)c1,"inconclusive: 25.9 µM [cytotoxic, single point]",–
O=C(Nc1ccccc1)Nc1csc2ccccc12,"inconclusive: 20.6 µM [cytotoxic, partial curve, poor fit]",–
CC(C)N(C(=O)NC(=O)Nc1ccc(S(=O)(=O)N2CCCC2)cc1)S(C)(=O)=O,–,inactive: -14.5%
Nn1c(SCC(=O)N2CCCC2)nnc1-c1cccs1,–,inactive: 25.9%
O=C(NCCNC(=O)c1cc(Cl)ccc1Cl)c1cnccn1,–,inactive: 0%
CCN1CCN(CC(=O)N2N=C(c3cccs3)CC2c2ccc(C)cc2)C(=O)C1=O (configuration not stated),–,inactive: -6.78%
COc1cc2c(C(=O)NC3CCCCCC3)cn(C)c(=O)c2cc1OC,–,inactive: -7.93%
Cc1cc(C)cc(NC(=O)CN(c2ccc(F)cc2)S(C)(=O)=O)c1,"inconclusive: 29.1 µM [cytotoxic, single point]",–
